These are yes or no findings as the source states them, for the method shown. Some entries that bind do so weakly or less than the wild type.
Legend:
[1] = biological target: T1, full-length human TSC protein complex (TSC1-TSC2-TBC1D7) (human) (UniProt Q92574+P49815+Q9P0N9); assay: cryo-EM micrographs; TSCC at higher concentrations, vitrified; web-like networks seen in micrographs; both purified
[2] = biological target: T1, full-length human TSC protein complex (TSC1-TSC2-TBC1D7) (human); assay: SEC; full-length TSCC on Superose 6; 20 mM Tris pH 8.0, 300 mM NaCl, 2 mM TCEP; broad peak; both purified

Chains of the proteins cited; added tags and fusions are not shown. Lines headed by an entry give the natural chain unless they say otherwise; changes in a name come on top.
UniProt Q92574: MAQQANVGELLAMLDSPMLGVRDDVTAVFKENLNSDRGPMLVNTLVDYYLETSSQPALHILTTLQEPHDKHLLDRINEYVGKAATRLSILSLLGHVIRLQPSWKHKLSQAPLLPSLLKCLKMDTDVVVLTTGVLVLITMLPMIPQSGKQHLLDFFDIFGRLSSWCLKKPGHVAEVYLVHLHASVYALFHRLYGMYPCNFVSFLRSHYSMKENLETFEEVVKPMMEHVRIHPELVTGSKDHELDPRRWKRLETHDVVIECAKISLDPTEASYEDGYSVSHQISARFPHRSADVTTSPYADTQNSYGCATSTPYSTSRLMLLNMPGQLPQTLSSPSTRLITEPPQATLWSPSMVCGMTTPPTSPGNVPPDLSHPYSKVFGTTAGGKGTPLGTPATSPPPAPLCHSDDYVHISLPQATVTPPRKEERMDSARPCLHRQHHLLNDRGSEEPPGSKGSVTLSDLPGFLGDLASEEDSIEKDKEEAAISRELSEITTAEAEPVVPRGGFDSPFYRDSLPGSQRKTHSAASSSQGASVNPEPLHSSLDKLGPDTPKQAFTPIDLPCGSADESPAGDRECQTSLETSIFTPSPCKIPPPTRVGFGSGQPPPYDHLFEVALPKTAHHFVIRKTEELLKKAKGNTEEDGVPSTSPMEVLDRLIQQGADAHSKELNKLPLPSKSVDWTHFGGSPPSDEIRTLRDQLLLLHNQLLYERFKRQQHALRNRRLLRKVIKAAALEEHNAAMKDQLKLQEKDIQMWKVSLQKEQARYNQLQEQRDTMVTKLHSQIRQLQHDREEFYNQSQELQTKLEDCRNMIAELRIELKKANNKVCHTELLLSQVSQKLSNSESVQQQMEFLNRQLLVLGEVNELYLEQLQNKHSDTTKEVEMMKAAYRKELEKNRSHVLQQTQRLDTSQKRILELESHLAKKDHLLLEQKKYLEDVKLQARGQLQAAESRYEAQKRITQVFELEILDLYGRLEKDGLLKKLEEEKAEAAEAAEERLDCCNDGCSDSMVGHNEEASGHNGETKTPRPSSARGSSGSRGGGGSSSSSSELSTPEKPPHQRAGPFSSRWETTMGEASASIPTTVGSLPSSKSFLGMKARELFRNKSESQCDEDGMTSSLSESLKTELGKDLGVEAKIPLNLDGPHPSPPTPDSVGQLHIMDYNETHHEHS
UniProt P49815: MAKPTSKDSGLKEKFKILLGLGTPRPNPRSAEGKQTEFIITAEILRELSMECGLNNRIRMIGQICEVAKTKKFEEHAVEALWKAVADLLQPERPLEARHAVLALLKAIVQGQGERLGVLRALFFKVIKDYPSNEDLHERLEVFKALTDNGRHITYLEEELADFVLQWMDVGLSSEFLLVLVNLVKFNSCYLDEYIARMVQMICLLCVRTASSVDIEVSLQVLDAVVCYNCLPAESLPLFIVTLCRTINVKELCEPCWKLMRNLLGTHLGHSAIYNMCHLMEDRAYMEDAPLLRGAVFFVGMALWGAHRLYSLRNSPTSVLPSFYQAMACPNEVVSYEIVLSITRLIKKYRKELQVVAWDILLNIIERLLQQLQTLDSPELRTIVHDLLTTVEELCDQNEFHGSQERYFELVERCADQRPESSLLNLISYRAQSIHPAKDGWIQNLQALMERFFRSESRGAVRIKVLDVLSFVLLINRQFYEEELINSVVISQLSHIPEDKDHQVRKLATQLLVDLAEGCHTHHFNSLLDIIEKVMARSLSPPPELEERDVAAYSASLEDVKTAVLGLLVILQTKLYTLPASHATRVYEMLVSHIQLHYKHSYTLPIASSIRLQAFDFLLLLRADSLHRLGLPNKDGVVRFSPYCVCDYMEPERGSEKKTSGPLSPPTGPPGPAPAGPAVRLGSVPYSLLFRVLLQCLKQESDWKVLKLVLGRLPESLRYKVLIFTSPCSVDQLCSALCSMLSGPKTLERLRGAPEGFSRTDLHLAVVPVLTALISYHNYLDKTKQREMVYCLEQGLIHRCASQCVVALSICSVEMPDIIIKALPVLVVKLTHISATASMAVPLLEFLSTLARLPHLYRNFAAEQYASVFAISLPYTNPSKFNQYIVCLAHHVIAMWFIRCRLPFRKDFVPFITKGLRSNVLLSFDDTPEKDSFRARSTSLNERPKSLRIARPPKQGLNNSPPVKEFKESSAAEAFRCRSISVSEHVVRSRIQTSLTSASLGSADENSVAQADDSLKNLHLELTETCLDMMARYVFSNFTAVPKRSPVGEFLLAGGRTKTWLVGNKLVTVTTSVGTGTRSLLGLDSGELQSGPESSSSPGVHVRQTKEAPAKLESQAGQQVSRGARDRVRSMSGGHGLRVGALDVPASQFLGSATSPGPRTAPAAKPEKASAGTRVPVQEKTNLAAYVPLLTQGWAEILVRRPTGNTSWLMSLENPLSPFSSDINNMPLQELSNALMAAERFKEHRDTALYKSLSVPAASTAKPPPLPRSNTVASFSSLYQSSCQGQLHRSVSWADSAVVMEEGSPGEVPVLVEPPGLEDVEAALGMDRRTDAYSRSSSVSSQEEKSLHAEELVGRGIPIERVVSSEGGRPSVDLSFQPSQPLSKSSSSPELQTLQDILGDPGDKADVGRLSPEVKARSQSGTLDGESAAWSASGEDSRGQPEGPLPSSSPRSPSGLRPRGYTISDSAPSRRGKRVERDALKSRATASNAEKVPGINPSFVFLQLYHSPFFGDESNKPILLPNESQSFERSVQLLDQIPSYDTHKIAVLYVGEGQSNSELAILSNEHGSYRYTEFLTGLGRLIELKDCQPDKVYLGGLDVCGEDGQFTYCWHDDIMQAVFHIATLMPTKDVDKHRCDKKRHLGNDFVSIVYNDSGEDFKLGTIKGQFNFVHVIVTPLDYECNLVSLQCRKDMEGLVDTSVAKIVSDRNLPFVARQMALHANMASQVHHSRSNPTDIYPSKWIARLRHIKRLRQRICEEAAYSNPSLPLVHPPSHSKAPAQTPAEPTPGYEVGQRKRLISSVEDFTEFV
UniProt Q9P0N9: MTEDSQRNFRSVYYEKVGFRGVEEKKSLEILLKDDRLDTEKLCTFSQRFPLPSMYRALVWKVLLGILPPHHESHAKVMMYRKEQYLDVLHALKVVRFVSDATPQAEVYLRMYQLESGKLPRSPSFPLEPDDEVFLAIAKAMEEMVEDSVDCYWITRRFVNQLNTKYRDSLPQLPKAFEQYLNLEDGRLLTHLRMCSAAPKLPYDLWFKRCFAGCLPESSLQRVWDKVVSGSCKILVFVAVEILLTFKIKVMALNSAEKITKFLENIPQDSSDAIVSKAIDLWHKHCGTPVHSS

“full-length human TSC protein complex (TSC1-TSC2-TBC1D7) (from UniProt Q92574-1 1-1164; P49815-1 1-1807; Q9P0N9 1-293)” was tested, and the binding [1] was “binds” and the binding [2] was “binds”.

From publication PMC7840889
